{"sequences": {"note": "By UniProt entry, the sequences of proteins in these tests, tags left out.", "UniProt P84077": "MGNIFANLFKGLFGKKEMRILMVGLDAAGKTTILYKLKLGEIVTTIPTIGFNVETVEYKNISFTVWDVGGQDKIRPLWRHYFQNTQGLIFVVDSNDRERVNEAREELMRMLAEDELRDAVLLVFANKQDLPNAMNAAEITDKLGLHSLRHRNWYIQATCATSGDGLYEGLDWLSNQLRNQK"}, "source": "paper PMC10620153", "about": "“ARF1 prevents aberrant type I interferon induction by regulating STING activation and recycling” (Nature Communications, 2023)", "binders": {"B1": {"name": "COPA (natural protein, human (endogenous in HEK293T), UniProt P53621 1-1224, looked up)", "chain": "MLTKFETKSARVKGLSFHPKRPWILTSLHNGVIQLWDYRMCTLIDKFDEHDGPVRGIDFHKQQPLFVSGGDDYKIKVWNYKLRRCLFTLLGHLDYIRTTFFHHEYPWILSASDDQTIRVWNWQSRTCVCVLTGHNHYVMCAQFHPTEDLVVSASLDQTVRVWDISGLRKKNLSPGAVESDVRGITGVDLFGTTDAVVKHVLEGHDRGVNWAAFHPTMPLIVSGADDRQVKIWRMNESKAWEVDTCRGHYNNVSCAVFHPRQELILSNSEDKSIRVWDMSKRTGVQTFRRDHDRFWVLAAHPNLNLFAAGHDGGMIVFKLERERPAYAVHGNMLHYVKDRFLRQLDFNSSKDVAVMQLRSGSKFPVFNMSYNPAENAVLLCTRASNLENSTYDLYTIPKDADSQNPDAPEGKRSSGLTAVWVARNRFAVLDRMHSLLIKNLKNEITKKVQVPNCDEIFYAGTGNLLLRDADSITLFDVQQKRTLASVKISKVKYVIWSADMSHVALLAKHAIVICNRKLDALCNIHENIRVKSGAWDESGVFIYTTSNHIKYAVTTGDHGIIRTLDLPIYVTRVKGNNVYCLDRECRPRVLTIDPTEFKFKLALINRKYDEVLHMVRNAKLVGQSIIAYLQKKGYPEVALHFVKDEKTRFSLALECGNIEIALEAAKALDDKNCWEKLGEVALLQGNHQIVEMCYQRTKNFDKLSFLYLITGNLEKLRKMMKIAEIRKDMSGHYQNALYLGDVSERVRILKNCGQKSLAYLTAATHGLDEEAESLKETFDPEKETIPDIDPNAKLLQPPAPIMPLDTNWPLLTVSKGFFEGTIASKGKGGALAADIDIDTVGTEGWGEDAELQLDEDGFVEATEGLGDDALGKGQEEGGGWDVEEDLELPPELDISPGAAGGAEDGFFVPPTKGTSPTQIWCNNSQLPVDHILAGSFETAMRLLHDQVGVIQFGPYKQLFLQTYARGRTTYQALPCLPSMYGYPNRNWKDAGLKNGVPAVGLKLNDLIQRLQLCYQLTTVGKFEEAVEKFRSILLSVPLLVVDNKQEIAEAQQLITICREYIVGLSVETERKKLPKETLEQQKRICEMAAYFTHSNLQPVHMILVLRTALNLFFKLKNFKTAATFARRLLELGPKPEVAQQTRKILSACEKNPTDAYQLNYDMHNPFDICAASYRPIYRGKPVEKCPLSGACYSPEFKGQICRVTTVTEIGKDVIGLRISPLQFR", "notes": "Coatomer subunit alpha (COPA), component of the COPI complex, endogenous in HEK293T cells; also called alpha-COP; coatomer protein subunit alpha; source: endogenous, HEK293T lysate"}, "B2": {"name": "COPB1 (natural protein, human (endogenous in HEK293T), UniProt P53618 1-953, looked up)", "chain": "MTAAENVCYTLINVPMDSEPPSEISLKNDLEKGDVKSKTEALKKVIIMILNGEKLPGLLMTIIRFVLPLQDHTIKKLLLVFWEIVPKTTPDGRLLHEMILVCDAYRKDLQHPNEFIRGSTLRFLCKLKEAELLEPLMPAIRACLEHRHSYVRRNAVLAIYTIYRNFEHLIPDAPELIHDFLVNEKDASCKRNAFMMLIHADQDRALDYLSTCIDQVQTFGDILQLVIVELIYKVCHANPSERARFIRCIYNLLQSSSPAVKYEAAGTLVTLSSAPTAIKAAAQCYIDLIIKESDNNVKLIVLDRLIELKEHPAHERVLQDLVMDILRVLSTPDLEVRKKTLQLALDLVSSRNVEELVIVLKKEVIKTNNVSEHEDTDKYRQLLVRTLHSCSVRFPDMAANVIPVLMEFLSDNNEAAAADVLEFVREAIQRFDNLRMLIVEKMLEVFHAIKSVKIYRGALWILGEYCSTKEDIQSVMTEIRRSLGEIPIVESEIKKEAGELKPEEEITVGPVQKLVTEMGTYATQSALSSSRPTKKEEDRPPLRGFLLDGDFFVAASLATTLTKIALRYVALVQEKKKQNSFVAEAMLLMATILHLGKSSLPKKPITDDDVDRISLCLKVLSECSPLMNDIFNKECRQSLSHMLSAKLEEEKLSQKKESEKRNVTVQPDDPISFMQLTAKNEMNCKEDQFQLSLLAAMGNTQRKEAADPLASKLNKVTQLTGFSDPVYAEAYVHVNQYDIVLDVLVVNQTSDTLQNCTLELATLGDLKLVEKPSPLTLAPHDFANIKANVKVASTENGIIFGNIVYDVSGAASDRNCVVLSDIHIDIMDYIQPATCTDAEFRQMWAEFEWENKVTVNTNMVDLNDYLQHILKSTNMKCLTPEKALSGYCGFMAANLYARSIFGEDALANVSIEKPIHQGPDAAVTGHIRIRAKSQGMALSLGDKINLSQKKTSI", "notes": "Coatomer subunit beta (COPB1), component of the COPI complex, endogenous in HEK293T cells; detected in the co-IP with anti-COPB (Abcam Ab2899); The co-IP names the protein only as COPB; also called beta-COP; source: endogenous, HEK293T lysate"}, "B3": {"name": "COPB2 (natural protein, human (endogenous in HEK293T), UniProt P35606 1-906, looked up)", "chain": "MPLRLDIKRKLTARSDRVKSVDLHPTEPWMLASLYNGSVCVWNHETQTLVKTFEVCDLPVRAAKFVARKNWVVTGADDMQIRVFNYNTLERVHMFEAHSDYIRCIAVHPTQPFILTSSDDMLIKLWDWDKKWSCSQVFEGHTHYVMQIVINPKDNNQFASASLDRTIKVWQLGSSSPNFTLEGHEKGVNCIDYYSGGDKPYLISGADDRLVKIWDYQNKTCVQTLEGHAQNVSCASFHPELPIIITGSEDGTVRIWHSSTYRLESTLNYGMERVWCVASLRGSNNVALGYDEGSIIVKLGREEPAMSMDANGKIIWAKHSEVQQANLKAMGDAEIKDGERLPLAVKDMGSCEIYPQTIQHNPNGRFVVVCGDGEYIIYTAMALRNKSFGSAQEFAWAHDSSEYAIRESNSIVKIFKNFKEKKSFKPDFGAESIYGGFLLGVRSVNGLAFYDWDNTELIRRIEIQPKHIFWSDSGELVCIATEESFFILKYLSEKVLAAQETHEGVTEDGIEDAFEVLGEIQEIVKTGLWVGDCFIYTSSVNRLNYYVGGEIVTIAHLDRTMYLLGYIPKDNRLYLGDKELNIISYSLLVSVLEYQTAVMRRDFSMADKVLPTIPKEQRTRVAHFLEKQGFKQQALTVSTDPEHRFELALQLGELKIAYQLAVEAESEQKWKQLAELAISKCQFGLAQECLHHAQDYGGLLLLATASGNANMVNKLAEGAERDGKNNVAFMSYFLQGKVDACLELLIRTGRLPEAAFLARTYLPSQVSRVVKLWRENLSKVNQKAAESLADPTEYENLFPGLKEAFVVEEWVKETHADLWPAKQYPLVTPNEERNVMEEGKDFQPSRSTAQQELDGKPASPTPVIVASHTANKEEKSLLELEVDLDNLELEDIDTTDINLDEDILDD", "notes": "Coatomer subunit beta' (COPB2), component of the COPI complex, endogenous in HEK293T cells; also called beta'-COP; source: endogenous, HEK293T lysate"}, "B4": {"name": "COPG1 (natural protein, human (endogenous in HEK293T), UniProt Q9Y678 1-874, looked up)", "chain": "MLKKFDKKDEESGGGSNPFQHLEKSAVLQEARVFNETPINPRKCAHILTKILYLINQGEHLGTTEATEAFFAMTKLFQSNDPTLRRMCYLTIKEMSCIAEDVIIVTSSLTKDMTGKEDNYRGPAVRALCQITDSTMLQAIERYMKQAIVDKVPSVSSSALVSSLHLLKCSFDVVKRWVNEAQEAASSDNIMVQYHALGLLYHVRKNDRLAVNKMISKVTRHGLKSPFAYCMMIRVASKQLEEEDGSRDSPLFDFIESCLRNKHEMVVYEAASAIVNLPGCSAKELAPAVSVLQLFCSSPKAALRYAAVRTLNKVAMKHPSAVTACNLDLENLVTDSNRSIATLAITTLLKTGSESSIDRLMKQISSFMSEISDEFKVVVVQAISALCQKYPRKHAVLMNFLFTMLREEGGFEYKRAIVDCIISIIEENSESKETGLSHLCEFIEDCEFTVLATRILHLLGQEGPKTTNPSKYIRFIYNRVVLEHEEVRAGAVSALAKFGAQNEEMLPSILVLLKRCVMDDDNEVRDRATFYLNVLEQKQKALNAGYILNGLTVSIPGLERALQQYTLEPSEKPFDLKSVPLATAPMAEQRTESTPITAVKQPEKVAATRQEIFQEQLAAVPEFRGLGPLFKSSPEPVALTESETEYVIRCTKHTFTNHMVFQFDCTNTLNDQTLENVTVQMEPTEAYEVLCYVPARSLPYNQPGTCYTLVALPKEDPTAVACTFSCMMKFTVKDCDPTTGETDDEGYEDEYVLEDLEVTVADHIQKVMKLNFEAAWDEVGDEFEKEETFTLSTIKTLEEAVGNIVKFLGMHPCERSDKVPDNKNTHTLLLAGVFRGGHDILVRSRLLLLDTVTMQVTARSLEELPVDIILASVG", "notes": "Coatomer subunit gamma-1 (COPG1), component of the COPI complex, endogenous in HEK293T cells; also called gamma-COP; source: endogenous, HEK293T lysate"}}, "note": "No constants are given. Whether binding was seen depends on the method and setting. Binding seen in cells or lysates may run through a third protein. Here binding means that the protein was enriched with, or labelled near, the bait; the list need not be complete."}
{"target": "human ARF1 wild type, myc-FLAG tagged (pCMV6-hARF1-myc-FLAG) (human) (UniProt P84077)", "test": "affinity purification with mass spectrometry; SILAC: ARF1 WT in heavy-labelled, ARF1 R99C in light-labelled HEK293T cells; lysates in 150 mM NaCl, 50 mM HEPES pH 7.4, 1% Triton X-100, 5 mM EDTA; anti-FLAG M2 magnetic beads 4 h at 4 °C, five washes; samples combined 1-to-1; mean of two replicates"}
{"binder": "B1", "binding": "binds"}
{"binder": "B2", "binding": "binds"}
{"binder": "B3", "binding": "binds"}
{"binder": "B4", "binding": "binds"}
